Results on two sequences are retold here after article PMC3973330, “A highly divergent archaeo-eukaryotic primase from the Thermococcus nautilus plasmid, pTN2”.

In this data set the target is T1, PolpTN2 (Thermococcus nautilus (plasmid pTN2)) (UniProt D6MY06).
T1 sequence (looked up, limits assumed): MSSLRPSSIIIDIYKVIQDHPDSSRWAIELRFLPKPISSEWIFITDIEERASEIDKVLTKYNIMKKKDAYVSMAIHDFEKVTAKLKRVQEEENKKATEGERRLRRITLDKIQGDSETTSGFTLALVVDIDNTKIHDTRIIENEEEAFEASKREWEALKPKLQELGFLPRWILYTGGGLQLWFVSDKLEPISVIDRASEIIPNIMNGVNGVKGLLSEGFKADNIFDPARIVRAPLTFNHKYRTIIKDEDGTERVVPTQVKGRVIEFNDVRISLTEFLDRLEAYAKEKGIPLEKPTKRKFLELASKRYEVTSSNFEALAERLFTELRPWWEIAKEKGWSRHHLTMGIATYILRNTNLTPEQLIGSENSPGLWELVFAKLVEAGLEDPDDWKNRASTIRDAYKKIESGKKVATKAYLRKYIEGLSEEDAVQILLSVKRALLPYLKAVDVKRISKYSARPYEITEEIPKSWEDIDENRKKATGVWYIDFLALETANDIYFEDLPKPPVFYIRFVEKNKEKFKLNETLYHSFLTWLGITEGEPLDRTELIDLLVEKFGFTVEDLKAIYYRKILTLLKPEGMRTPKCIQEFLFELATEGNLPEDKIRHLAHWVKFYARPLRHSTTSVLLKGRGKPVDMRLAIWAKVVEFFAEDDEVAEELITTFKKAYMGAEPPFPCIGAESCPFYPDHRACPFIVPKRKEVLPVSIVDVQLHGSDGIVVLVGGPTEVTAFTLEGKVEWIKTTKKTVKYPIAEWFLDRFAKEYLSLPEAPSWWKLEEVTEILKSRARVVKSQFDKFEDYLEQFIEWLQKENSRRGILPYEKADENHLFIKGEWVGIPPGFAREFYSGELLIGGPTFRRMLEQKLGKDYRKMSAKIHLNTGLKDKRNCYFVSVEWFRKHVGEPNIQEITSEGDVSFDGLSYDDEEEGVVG
The experiment in a line: EMSA. The note with it: 10 mM Mg2+, very little shifted material, EMSA: 50 mM Tris-HCl pH 8, 20 mM KCl, 10 mM MgCl2, 7.5 nM probe, 30 min at 65 C, 10% native PAGE in TBE, recombinant protein, protein details: His-tag (pDEST17), label: 32P. (In general: Mobility shift assays separate free from complexed probe on a gel.)

Construct, isoform or probe ends are uncertain for at least one entry. A weaker result is weaker than the reference pair of the same experiment. Protein sequences can lack the tags named with them.

Turning to AGAGGGTTCAAAAAATGGTTTCACCCCAAA [30 DNA], the binding result (single-stranded DNA) was “binds more weakly”.
As to AGAGGGUUCAAAAAAUGGUUUCACCCCAAA [30 RT], the binding result is “binds more weakly”.
